A weaker result is weaker than the reference pair of the same experiment. Tags and fusion partners may be left off the protein sequences shown.
Biological target: T1, eIF4G1 1-82 (Saccharomyces cerevisiae) (UniProt P39935)
T1 sequence (looked up): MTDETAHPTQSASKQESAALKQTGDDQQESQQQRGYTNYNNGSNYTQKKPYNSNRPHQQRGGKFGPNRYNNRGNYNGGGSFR
Assay: NMR (1H-15N HSQC titration)
Details: chemical shift changes about half of those with A14; NMR: 25 mM potassium phosphate pH 6.5, 25 or 150 mM NaCl, 1 mM DTT, 10% D2O, 25 C, 800 MHz (general NMR conditions; not stated specifically for RNA titrations); recombinant protein; residues 1-82

**Q.** Does AAAAAAAAAAAA [A12] bind?
**A.** Result: binds more weakly

— article PMC9537944, “eIF4G1 N-terminal intrinsically disordered domain is a multi-docking station for RNA, Pab1, Pub1, and self-assembly” (Frontiers in Molecular Biosciences, 2022)
